The results in this text go back to PMC6685058 (2019).

Results are given in words; binding and its absence hold for the method and conditions named. Some binding calls cover weakened binding; strength is not graded here. Tags and fused reporters may be left off the sequences shown.

The target of the assay is T1, BD-IMA-3(aa 278–514) (C. elegans) (UniProt Q19969).
T1 sequence: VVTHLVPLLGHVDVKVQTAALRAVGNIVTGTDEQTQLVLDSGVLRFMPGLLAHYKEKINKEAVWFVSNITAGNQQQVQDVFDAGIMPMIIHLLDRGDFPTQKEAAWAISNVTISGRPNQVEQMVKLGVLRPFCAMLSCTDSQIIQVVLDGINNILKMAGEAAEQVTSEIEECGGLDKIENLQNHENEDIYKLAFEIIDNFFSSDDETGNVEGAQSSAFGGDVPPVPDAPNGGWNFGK
Briefly: two-hybrid; different yeast two-hybrid system (Clontech); pACT2 and pBTM116 fusions co-transformed into yeast strain L40; dilution series spotted on SD medium lacking leucine, tryptophan and histidine with 10 mM 3-AT; β-galactosidase assays.

B1: AD-CEBP-1(aa 1–319) FL (protein, UniProt Q18909 1-319)
chain: MYSKLNYSHQKGDQALKHPHLVRLQQSEVRGFTDMPNNGASTSSAGSFARQDSLTIAASLQQRDRERHPVDFMETELDLGDYLQVLHDLDVPTDNVDFDDAELQKCNILYDGEHPYEQPELNGYERHVAYGTGYRVPGDYDQDGYKMNCEVKAETPDFGATKTRRAVKRPVPYDDYQKEYSEESSDMTDNDGSVDDSYFEPKSKKTKSAGLENFKPQTRARKYKLKADEEKAEPTYKLKRARNNDAVRKSRKKAKELQDKKEAEHDKMKRRIAELEGLLQSERDARRRDQDTLEQLLRNKGPMKEQRMPQRHILENFNK
Take B1: the binding result is reported as “binds”.

B2: AD-CEBP-1(aa 1–319, K204A, K205A, K207A) (protein, UniProt Q18909 1-319)
chain: MYSKLNYSHQKGDQALKHPHLVRLQQSEVRGFTDMPNNGASTSSAGSFARQDSLTIAASLQQRDRERHPVDFMETELDLGDYLQVLHDLDVPTDNVDFDDAELQKCNILYDGEHPYEQPELNGYERHVAYGTGYRVPGDYDQDGYKMNCEVKAETPDFGATKTRRAVKRPVPYDDYQKEYSEESSDMTDNDGSVDDSYFEPKSAATASAGLENFKPQTRARKYKLKADEEKAEPTYKLKRARNNDAVRKSRKKAKELQDKKEAEHDKMKRRIAELEGLLQSERDARRRDQDTLEQLLRNKGPMKEQRMPQRHILENFNK
Turning to B2, the binding result was “binds”.

B3: AD-CEBP-1(aa 1–319, K162A, R164A, K168A, R169A) (protein, UniProt Q18909 1-319)
chain: MYSKLNYSHQKGDQALKHPHLVRLQQSEVRGFTDMPNNGASTSSAGSFARQDSLTIAASLQQRDRERHPVDFMETELDLGDYLQVLHDLDVPTDNVDFDDAELQKCNILYDGEHPYEQPELNGYERHVAYGTGYRVPGDYDQDGYKMNCEVKAETPDFGATATARAVAAPVPYDDYQKEYSEESSDMTDNDGSVDDSYFEPKSKKTKSAGLENFKPQTRARKYKLKADEEKAEPTYKLKRARNNDAVRKSRKKAKELQDKKEAEHDKMKRRIAELEGLLQSERDARRRDQDTLEQLLRNKGPMKEQRMPQRHILENFNK
B3: the binding entry is “no binding”.

B4: AD-CEBP-1(aa 1–319, K239A, R240A) (protein, UniProt Q18909 1-319)
chain: MYSKLNYSHQKGDQALKHPHLVRLQQSEVRGFTDMPNNGASTSSAGSFARQDSLTIAASLQQRDRERHPVDFMETELDLGDYLQVLHDLDVPTDNVDFDDAELQKCNILYDGEHPYEQPELNGYERHVAYGTGYRVPGDYDQDGYKMNCEVKAETPDFGATKTRRAVKRPVPYDDYQKEYSEESSDMTDNDGSVDDSYFEPKSKKTKSAGLENFKPQTRARKYKLKADEEKAEPTYKLAAARNNDAVRKSRKKAKELQDKKEAEHDKMKRRIAELEGLLQSERDARRRDQDTLEQLLRNKGPMKEQRMPQRHILENFNK
Take B4: the binding entry is recorded as “binds”.
